The numbers were not newly measured in US11639337B2, “Bicyclic heteroaryl derivatives and preparation and uses thereof” (XWPHARMA LTD., priority 2017, dated 2023), which cites them from elsewhere.

In this series the test system is metastatic melanoma. The note with it: Phase 2, patients with metastatic melanoma; cited from earlier work.

For the compound `Nc1nc2ccc(OC(F)(F)F)cc2s1` [Riluzole], the “patients in whom metastasis was initially stabilized” value is listed as 42%.
